The results in this text go back to doi:10.1101/404863.

Test [1] addresses T1, Drosophila Troponin I (Drosophila (endogenous in Canton-S flies)) (UniProt P36188).
T1 sequence: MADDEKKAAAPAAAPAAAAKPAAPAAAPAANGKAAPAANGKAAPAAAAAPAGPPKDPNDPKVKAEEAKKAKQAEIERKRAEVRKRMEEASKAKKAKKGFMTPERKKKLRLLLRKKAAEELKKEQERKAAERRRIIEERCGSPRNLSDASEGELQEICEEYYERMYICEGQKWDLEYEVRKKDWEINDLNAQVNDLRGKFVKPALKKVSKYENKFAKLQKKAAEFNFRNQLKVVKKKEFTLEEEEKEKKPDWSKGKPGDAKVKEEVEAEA
In words: co-IP.

The target of test [2] is T2, disc large (Dlg) (Drosophila (endogenous in Canton-S flies)) (UniProt P31007).
T2 sequence: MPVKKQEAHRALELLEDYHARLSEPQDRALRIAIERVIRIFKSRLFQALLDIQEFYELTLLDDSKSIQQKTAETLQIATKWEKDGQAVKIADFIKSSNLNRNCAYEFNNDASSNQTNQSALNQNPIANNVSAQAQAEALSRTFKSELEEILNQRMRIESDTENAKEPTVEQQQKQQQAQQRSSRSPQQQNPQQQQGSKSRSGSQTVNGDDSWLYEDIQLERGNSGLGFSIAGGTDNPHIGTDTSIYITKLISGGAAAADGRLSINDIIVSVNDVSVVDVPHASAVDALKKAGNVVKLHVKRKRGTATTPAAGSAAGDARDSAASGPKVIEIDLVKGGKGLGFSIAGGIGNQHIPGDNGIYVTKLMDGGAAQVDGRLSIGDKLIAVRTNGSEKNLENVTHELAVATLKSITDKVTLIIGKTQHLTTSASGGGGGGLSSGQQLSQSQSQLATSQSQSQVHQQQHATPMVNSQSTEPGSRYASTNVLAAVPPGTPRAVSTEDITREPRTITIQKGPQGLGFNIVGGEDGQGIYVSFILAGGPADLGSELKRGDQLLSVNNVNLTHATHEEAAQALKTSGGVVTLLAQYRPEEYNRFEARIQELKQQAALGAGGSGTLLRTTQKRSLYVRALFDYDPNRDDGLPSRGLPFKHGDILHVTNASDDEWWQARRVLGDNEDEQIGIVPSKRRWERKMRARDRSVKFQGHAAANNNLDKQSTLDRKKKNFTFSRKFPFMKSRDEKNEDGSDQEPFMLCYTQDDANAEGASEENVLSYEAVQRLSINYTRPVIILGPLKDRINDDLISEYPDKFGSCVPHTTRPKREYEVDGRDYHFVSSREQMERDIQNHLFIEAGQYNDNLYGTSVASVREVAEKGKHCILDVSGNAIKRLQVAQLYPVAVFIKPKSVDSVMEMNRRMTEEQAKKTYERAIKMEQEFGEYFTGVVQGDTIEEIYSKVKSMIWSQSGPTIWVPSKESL
In words: co-IP.

Results are given in words; binding and its absence hold for the method and conditions named. In cells and extracts the contact can be indirect. Some entries that bind do so weakly or less than the wild type.

B1: disc large (Dlg) (protein, UniProt P31007 1-970)
chain: MPVKKQEAHRALELLEDYHARLSEPQDRALRIAIERVIRIFKSRLFQALLDIQEFYELTLLDDSKSIQQKTAETLQIATKWEKDGQAVKIADFIKSSNLNRNCAYEFNNDASSNQTNQSALNQNPIANNVSAQAQAEALSRTFKSELEEILNQRMRIESDTENAKEPTVEQQQKQQQAQQRSSRSPQQQNPQQQQGSKSRSGSQTVNGDDSWLYEDIQLERGNSGLGFSIAGGTDNPHIGTDTSIYITKLISGGAAAADGRLSINDIIVSVNDVSVVDVPHASAVDALKKAGNVVKLHVKRKRGTATTPAAGSAAGDARDSAASGPKVIEIDLVKGGKGLGFSIAGGIGNQHIPGDNGIYVTKLMDGGAAQVDGRLSIGDKLIAVRTNGSEKNLENVTHELAVATLKSITDKVTLIIGKTQHLTTSASGGGGGGLSSGQQLSQSQSQLATSQSQSQVHQQQHATPMVNSQSTEPGSRYASTNVLAAVPPGTPRAVSTEDITREPRTITIQKGPQGLGFNIVGGEDGQGIYVSFILAGGPADLGSELKRGDQLLSVNNVNLTHATHEEAAQALKTSGGVVTLLAQYRPEEYNRFEARIQELKQQAALGAGGSGTLLRTTQKRSLYVRALFDYDPNRDDGLPSRGLPFKHGDILHVTNASDDEWWQARRVLGDNEDEQIGIVPSKRRWERKMRARDRSVKFQGHAAANNNLDKQSTLDRKKKNFTFSRKFPFMKSRDEKNEDGSDQEPFMLCYTQDDANAEGASEENVLSYEAVQRLSINYTRPVIILGPLKDRINDDLISEYPDKFGSCVPHTTRPKREYEVDGRDYHFVSSREQMERDIQNHLFIEAGQYNDNLYGTSVASVREVAEKGKHCILDVSGNAIKRLQVAQLYPVAVFIKPKSVDSVMEMNRRMTEEQAKKTYERAIKMEQEFGEYFTGVVQGDTIEEIYSKVKSMIWSQSGPTIWVPSKESL
As to B1, the binding result in test [1] is “binds”.

B2: atypical PKC (aPKC) (protein, UniProt A1Z9X0 1-606)
chain: MQKMPSQILNDGSSVSLNSASMNMANTPNSITVKTAYNGQIIITTINKNISYEELCYEIRNICRFPLDQPFTIKWVDEENDPCTISTKMELDEAIRLYEMNFDSQLVIHVFPNVPQAPGLSCDGEDRSIYRRGARRWRKLYRVNGHIFQAKRFNRRAFCAYCQDRIWGLGRQGFKCIQCKLLVHKKCHKLVQKHCTDQPEPLVKERAEESSDPIPVPLPPLPYEAMSGGAEACETHDHAHIVAPPPPEDPLEPGTQRQYSLNDFELIRVIGRGSYAKVLMVELRRTRRIYAMKVIKKALVTDDEDIDWVQTEKHVFETASNHPFLVGLHSCFQTPSRLFFVIEFVRGGDLMYHMQRQRRLPEEHARFYAAEISLALNFLHEKGIIYRDLKLDNVLLDHEGHIKLTDYGMCKEGIRPGDTTSTFCGTPNYIAPEILRGEDYGFSVDWWALGVLLYEMLAGRSPFDLAGASENPDQNTEDYLFQVILEKTIRIPRSLSVRAASVLKGFLNKNPADRLGCHRESAFMDIVSHPFFKNMDWELLERKQVTPPFKPRLDSDRDLANFPPEFTGEAVQLTPDDDHVIDNIDQSEFEGFEYVNPLLMSLEDCV
Regarding B2, the binding result in test [1] was “binds”.

B3: Drosophila Troponin I (protein, UniProt P36188 1-269)
chain: MADDEKKAAAPAAAPAAAAKPAAPAAAPAANGKAAPAANGKAAPAAAAAPAGPPKDPNDPKVKAEEAKKAKQAEIERKRAEVRKRMEEASKAKKAKKGFMTPERKKKLRLLLRKKAAEELKKEQERKAAERRRIIEERCGSPRNLSDASEGELQEICEEYYERMYICEGQKWDLEYEVRKKDWEINDLNAQVNDLRGKFVKPALKKVSKYENKFAKLQKKAAEFNFRNQLKVVKKKEFTLEEEEKEKKPDWSKGKPGDAKVKEEVEAEA
B3: the binding entry in test [2] is “binds”.
